Patent US20240358831A1, “SELECTION OF IMMUNE CELLS USING PEPTIDE MHC COMPLEXES GENERATED BY CONDITIONAL LIGAND EXCHANGE” (IMMATICS US, INC., priority 2021, published 2024)

Assay: Detection frequency of HLA presented peptides on tumor samples by LC-MS
Set-up: species or system human

Sequence | frequency Tumor
ILMEHIHKL (listed as Homo sapiens) [RPL19-001, parental peptide] | 86%
DLNEKARAL (listed as Homo sapiens) [PDCD10-001, parental peptide] | 83%
IIYKGGTSR (listed as Homo sapiens) [GSN-001, parental peptide] | 74%
DLERKVESL [VIM-003] | 99%
AYVHMVTHF (listed as Homo sapiens) [TEG-001, parental peptide] | 99%
FGLARAFSL (listed as Homo sapiens) [MIR286-001, parental peptide] | 92%
NENSLFKSL (listed as Homo sapiens) [CLTC-005, parental peptide] | 98%
LLDQGQLNKY (listed as Homo sapiens) [CLTC-001, parental peptide] | 98%
NIKKKQEAL (listed as Homo sapiens) [SPTAN-001, parental peptide] | 10%
STETSTVLY (listed as Homo sapiens) [MUC16-009, parental peptide] | 15%
AEIDARNDSF (listed as Homo sapiens) [SPTBN1-001, parental peptide] | 89%
STDPRPASY (listed as Homo sapiens) [AXIN1-002, parental peptide] | 97%
DAVVKHVL (listed as Homo sapiens) [COPA-007, parental peptide] | 95%
VTELHVISY (listed as Homo sapiens) [RNF213-009, parental peptide] | 96%
RLFVGSIPK (listed as Homo sapiens) [HNRNPR-001, parental peptide] | 98%
TVKQKYLSF (listed as Homo sapiens) [LOC646214-002, parental peptide] | 72%
TPKEKAQAL (listed as Homo sapiens) [MKI-002, parental peptide] | 4%
ALFLTLTTK (listed as Homo sapiens) [GIBB-001, parental peptide] | 99%
YLLPAIVHI (listed as Homo sapiens) [DDX5-001, parental peptide] | 99%
APRTVALTAL (listed as Homo sapiens) [HLA-DPB1-001, parental peptide] | 98%
SPRPPLISV (listed as Homo sapiens) [MUDENG-001, parental peptide] | 93%
AESIVVHTY (listed as Homo sapiens) [CSE1-004, parental peptide] | 97%
KYPENFFLL (listed as Homo sapiens) [PPP1CA-001, parental peptide] | 100%
